Columns and labels:
Karenia brevis = experiment: Anti-phytoplankton activity against Karenia brevis assessed as change in chlorophyll a level measured after 72 hrs by fluorescence based analysis; assay type: functional, organism-based
[1] = Anti-phytoplankton activity against Skeletonema grethae assessed as reduction in chlorophyll a level measured after 72 hrs by fluorescence based analysis; assay type: functional, organism-based

CC(=O)NCCc1c[nH]c2cc(F)ccc12
IC50 (Karenia brevis): 140 µM
IC50 [1]: 23.2 µM
